Results are given in words; binding and its absence hold for the method and conditions named. For part of these data: Binding seen in cells or lysates may run through a third protein. Some results given as binding are weak or reduced against the parent protein; the word gives no strength.
Legend:
LexA_(DBDmut)-RpoA = LexA_(DBDmut)-RpoA (UniProt P0A7Z7); experiment: two-hybrid
[1] = target: His6-RpoA expressed from pET28-RpoA in S. Typhimurium invF::3xFLAG (UniProt P0A7Z7); experiment: pull-down
His6-RpoA (purified) = His6-RpoA (purified) (UniProt P0A7Z7); experiment: pull-down; only the target purified

Protein sequences, listed by entry. Tags and fused reporters are not part of them.
UniProt P0A7Z7: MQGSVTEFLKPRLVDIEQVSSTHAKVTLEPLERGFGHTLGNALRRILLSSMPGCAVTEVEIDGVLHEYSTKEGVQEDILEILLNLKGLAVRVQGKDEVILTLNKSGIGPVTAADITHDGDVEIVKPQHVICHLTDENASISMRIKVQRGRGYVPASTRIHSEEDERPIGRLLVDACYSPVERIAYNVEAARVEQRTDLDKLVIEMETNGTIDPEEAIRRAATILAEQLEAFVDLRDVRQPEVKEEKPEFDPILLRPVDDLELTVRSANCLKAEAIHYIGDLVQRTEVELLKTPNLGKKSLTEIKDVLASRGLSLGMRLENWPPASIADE
UniProt P69066: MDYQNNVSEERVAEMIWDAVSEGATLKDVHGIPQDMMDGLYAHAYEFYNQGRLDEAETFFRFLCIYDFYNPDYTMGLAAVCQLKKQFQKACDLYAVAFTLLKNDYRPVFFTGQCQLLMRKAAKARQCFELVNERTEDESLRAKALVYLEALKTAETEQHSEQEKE

In the case of “LexA_(DBDwt)-SicA (from UniProt P69066 1-165)”, the binding (LexA_(DBDmut)-RpoA) is reported as “binds”.
For “SicA (from the extract) (from UniProt P69066 1-165)”, the binding [1] was “binds”.
In the case of SicA-FLAG (from UniProt P69066 1-165), the binding (His6-RpoA (purified)) is reported as “binds”.

From PMC10761746
